No constants are given. Whether binding was seen depends on the method and setting. Binding seen in cells or lysates may run through a third protein. These calls come from enrichment with a bait or labelling near it, and not all partners need be listed. Where a sequence is shown, tags or fusion partners need not be part of it.
Target: T1, FLAG-tagged LAP2α (wild type) (UniProt P42166)
T1 sequence: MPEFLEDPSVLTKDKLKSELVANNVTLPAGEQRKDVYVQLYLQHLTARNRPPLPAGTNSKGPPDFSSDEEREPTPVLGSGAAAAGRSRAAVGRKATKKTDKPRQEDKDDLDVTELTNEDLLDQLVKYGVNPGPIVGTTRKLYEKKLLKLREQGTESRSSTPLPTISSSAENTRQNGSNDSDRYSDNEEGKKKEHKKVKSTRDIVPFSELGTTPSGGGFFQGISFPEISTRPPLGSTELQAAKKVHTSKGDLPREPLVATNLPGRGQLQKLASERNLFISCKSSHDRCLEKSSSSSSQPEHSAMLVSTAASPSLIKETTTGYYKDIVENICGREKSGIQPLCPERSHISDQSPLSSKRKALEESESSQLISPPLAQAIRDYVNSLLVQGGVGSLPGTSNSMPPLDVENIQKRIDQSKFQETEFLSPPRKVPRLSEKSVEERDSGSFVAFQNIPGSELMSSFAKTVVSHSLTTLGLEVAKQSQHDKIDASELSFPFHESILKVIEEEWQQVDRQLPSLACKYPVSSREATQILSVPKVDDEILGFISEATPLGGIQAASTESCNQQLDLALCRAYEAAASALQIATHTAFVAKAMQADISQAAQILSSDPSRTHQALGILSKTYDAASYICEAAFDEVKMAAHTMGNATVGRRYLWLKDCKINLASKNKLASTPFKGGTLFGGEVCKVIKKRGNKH
Test: affinity purification with mass spectrometry; HeLa cells stably expressing FLAG-LAP2α

Chains of the proteins cited; added tags and fusions are not shown.
UniProt P09874: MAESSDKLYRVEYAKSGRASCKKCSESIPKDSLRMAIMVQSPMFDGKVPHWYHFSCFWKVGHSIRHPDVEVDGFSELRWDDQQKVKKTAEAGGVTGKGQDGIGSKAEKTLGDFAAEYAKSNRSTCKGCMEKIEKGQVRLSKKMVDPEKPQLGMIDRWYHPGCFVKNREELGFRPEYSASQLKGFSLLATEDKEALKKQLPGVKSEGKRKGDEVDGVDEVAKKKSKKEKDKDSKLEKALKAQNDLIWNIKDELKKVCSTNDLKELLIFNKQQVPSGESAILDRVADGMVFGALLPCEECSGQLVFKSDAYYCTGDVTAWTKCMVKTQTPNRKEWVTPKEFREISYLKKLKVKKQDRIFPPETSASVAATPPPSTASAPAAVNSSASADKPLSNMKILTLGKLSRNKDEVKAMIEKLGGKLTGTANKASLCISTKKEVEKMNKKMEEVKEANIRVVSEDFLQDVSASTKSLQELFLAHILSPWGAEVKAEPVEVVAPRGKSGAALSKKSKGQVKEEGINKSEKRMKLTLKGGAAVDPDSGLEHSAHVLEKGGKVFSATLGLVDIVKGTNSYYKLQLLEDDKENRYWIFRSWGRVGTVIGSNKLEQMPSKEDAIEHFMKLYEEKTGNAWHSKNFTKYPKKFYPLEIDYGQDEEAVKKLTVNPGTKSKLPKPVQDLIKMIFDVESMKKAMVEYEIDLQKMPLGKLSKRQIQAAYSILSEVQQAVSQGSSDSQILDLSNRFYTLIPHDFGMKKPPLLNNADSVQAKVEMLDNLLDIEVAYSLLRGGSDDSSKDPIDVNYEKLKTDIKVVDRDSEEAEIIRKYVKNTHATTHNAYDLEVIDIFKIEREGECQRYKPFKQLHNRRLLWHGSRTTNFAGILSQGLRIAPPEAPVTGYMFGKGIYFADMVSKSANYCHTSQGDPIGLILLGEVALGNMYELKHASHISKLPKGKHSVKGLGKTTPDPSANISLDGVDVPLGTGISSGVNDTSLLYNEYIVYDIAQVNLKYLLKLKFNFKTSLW

## poly(ADP-ribose) polymerase 1 (PARP1) (from UniProt P09874 1-1014) (enzyme)
  binding: binds

Source: PMC8883701
